Test results reported in article PMC2475507.
These are yes or no findings as the source states them, for the method shown. Binding seen in cells or lysates may run through a third protein. Some binding calls cover weakened binding; strength is not graded here. Values belong to the substance of their own block, whether it stands above or below them.

The chains behind the UniProt entries cited, without tags or fusion partners.
UniProt Q00987: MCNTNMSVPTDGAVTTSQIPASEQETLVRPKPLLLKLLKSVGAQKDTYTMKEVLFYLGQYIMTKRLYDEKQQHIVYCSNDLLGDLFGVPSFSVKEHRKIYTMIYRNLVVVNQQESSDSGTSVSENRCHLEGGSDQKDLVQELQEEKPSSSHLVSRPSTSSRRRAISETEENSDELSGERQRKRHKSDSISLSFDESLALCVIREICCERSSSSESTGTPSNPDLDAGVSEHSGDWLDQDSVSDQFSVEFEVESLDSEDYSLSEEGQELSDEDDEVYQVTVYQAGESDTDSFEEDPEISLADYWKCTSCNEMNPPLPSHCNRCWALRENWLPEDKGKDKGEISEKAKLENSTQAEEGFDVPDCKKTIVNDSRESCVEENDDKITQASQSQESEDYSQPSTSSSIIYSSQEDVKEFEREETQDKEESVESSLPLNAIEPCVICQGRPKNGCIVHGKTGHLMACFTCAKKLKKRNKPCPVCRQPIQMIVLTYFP
UniProt P98177: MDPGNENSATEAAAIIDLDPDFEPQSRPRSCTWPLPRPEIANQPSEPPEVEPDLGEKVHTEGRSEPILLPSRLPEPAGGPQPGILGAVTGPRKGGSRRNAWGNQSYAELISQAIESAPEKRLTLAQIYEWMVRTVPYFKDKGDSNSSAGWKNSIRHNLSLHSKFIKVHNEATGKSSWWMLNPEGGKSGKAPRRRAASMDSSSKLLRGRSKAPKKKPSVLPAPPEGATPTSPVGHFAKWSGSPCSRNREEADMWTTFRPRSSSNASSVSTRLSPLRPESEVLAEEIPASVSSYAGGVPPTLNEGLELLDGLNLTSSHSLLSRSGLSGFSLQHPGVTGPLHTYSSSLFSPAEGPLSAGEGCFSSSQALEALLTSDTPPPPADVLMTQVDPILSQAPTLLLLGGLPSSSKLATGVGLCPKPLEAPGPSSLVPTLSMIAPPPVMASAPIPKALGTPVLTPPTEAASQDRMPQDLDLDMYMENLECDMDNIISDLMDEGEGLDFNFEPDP

What was measured:
Flag-Mdm2 = Flag-Mdm2 (UniProt Q00987); experiment: co-IP; tagged FOXO4 and tagged Mdm2 co-expressed in HEK293T cells; precipitated with Flag antibody pre-coupled to Protein-A Sepharose; Co-IP buffer 20 mM Tris-HCl pH 8.0, 1% NP-40, 10% glycerol, 1 mM MgCl2, 1 mM EDTA, 150 mM NaCl; western blot
Flag-FOXO4 = Flag-FOXO4 (UniProt P98177); experiment: as above
[1] = target: endogenous Mdm2 (human (endogenous in HEK293T)) (UniProt Q00987); experiment: co-IP; endogenous proteins of HEK293T cells; precipitated for FOXO4, Mdm2 or isotype controls; cells treated with 200 µM hydrogen peroxide for 15 min before lysis; Co-IP buffer 20 mM Tris-HCl pH 8.0, 1% NP-40, 10% glycerol, 1 mM MgCl2, 1 mM EDTA, 150 mM NaCl
[2] = target: endogenous FOXO4 (human (endogenous in HEK293T)) (UniProt P98177); experiment: as above

binding (Flag-Mdm2): binds
Substance: HA-FOXO4 (from UniProt P98177 1-505)

binding (Flag-FOXO4): binds
Substance: Myc-Mdm2 (from UniProt Q00987 1-491) (enzyme)

binding [1]: binds
Substance: endogenous FOXO4 (from UniProt P98177 1-505)

binding [2]: binds
Substance: endogenous Mdm2 (from UniProt Q00987 1-491) (enzyme)
